# Measurements taken from publication PMC10834496.
# By UniProt entry, the sequences of proteins in these tests, tags left out. Where a name states a change or a piece, a line headed by the entry shows the natural chain unless it says otherwise. Residues count along the entry.
# UniProt Q9ERC8: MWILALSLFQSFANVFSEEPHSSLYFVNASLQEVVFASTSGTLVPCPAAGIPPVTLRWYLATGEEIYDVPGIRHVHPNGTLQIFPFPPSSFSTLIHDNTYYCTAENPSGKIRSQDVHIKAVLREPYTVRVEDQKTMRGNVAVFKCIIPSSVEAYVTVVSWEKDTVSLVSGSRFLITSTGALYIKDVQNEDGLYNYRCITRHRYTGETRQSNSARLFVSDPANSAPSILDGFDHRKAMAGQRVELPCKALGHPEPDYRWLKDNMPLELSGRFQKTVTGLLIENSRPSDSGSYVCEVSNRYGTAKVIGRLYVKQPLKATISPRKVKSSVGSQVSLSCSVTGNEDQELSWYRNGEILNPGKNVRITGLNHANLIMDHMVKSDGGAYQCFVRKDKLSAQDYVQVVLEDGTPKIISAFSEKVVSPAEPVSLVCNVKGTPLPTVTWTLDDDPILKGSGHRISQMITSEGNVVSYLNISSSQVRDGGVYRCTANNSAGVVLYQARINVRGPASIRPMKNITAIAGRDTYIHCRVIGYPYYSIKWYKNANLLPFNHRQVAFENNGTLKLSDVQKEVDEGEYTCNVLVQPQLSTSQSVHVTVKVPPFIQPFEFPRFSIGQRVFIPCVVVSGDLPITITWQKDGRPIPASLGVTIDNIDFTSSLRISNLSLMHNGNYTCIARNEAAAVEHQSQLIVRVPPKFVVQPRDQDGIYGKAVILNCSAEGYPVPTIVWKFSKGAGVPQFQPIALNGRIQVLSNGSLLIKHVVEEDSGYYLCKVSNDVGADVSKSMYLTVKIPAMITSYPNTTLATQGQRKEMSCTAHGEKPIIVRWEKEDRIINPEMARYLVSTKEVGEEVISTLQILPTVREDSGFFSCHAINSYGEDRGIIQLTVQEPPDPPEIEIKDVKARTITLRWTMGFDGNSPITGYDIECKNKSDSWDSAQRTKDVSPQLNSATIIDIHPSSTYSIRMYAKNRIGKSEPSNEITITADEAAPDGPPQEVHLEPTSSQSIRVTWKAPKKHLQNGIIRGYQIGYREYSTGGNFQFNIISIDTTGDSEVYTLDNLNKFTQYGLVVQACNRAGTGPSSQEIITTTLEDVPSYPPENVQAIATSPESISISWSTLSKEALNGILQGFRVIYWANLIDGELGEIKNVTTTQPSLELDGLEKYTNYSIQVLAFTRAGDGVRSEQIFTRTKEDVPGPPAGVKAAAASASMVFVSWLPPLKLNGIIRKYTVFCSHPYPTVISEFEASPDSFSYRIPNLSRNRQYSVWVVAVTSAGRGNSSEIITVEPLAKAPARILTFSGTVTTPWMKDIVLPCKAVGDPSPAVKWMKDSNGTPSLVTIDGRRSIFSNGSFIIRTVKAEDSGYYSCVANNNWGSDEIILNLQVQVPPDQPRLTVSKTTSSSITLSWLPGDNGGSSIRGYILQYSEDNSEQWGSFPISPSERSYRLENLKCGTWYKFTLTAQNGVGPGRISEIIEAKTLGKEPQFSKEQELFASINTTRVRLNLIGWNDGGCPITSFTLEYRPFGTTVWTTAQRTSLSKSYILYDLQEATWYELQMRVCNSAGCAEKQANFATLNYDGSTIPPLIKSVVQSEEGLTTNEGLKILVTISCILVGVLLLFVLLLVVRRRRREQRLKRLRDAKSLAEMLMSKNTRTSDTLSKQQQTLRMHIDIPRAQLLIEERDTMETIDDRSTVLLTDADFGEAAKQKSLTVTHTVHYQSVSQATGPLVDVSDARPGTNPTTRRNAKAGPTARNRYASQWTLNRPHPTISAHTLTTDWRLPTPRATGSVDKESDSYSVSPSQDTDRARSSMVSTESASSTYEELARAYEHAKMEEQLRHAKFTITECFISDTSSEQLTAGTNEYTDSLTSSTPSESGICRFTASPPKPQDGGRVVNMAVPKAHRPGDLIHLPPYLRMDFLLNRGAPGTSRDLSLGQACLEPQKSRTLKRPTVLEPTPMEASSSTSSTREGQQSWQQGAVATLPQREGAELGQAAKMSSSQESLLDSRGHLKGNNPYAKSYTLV
# Down syndrome cell adhesion molecule (DSCAM), endogenous (mouse (endogenous in cerebellum)): residues 18-2013 of Q9ERC8
# Results are given in words; binding and its absence hold for the method and conditions named. In cells and extracts the contact can be indirect. Some entries that bind do so weakly or less than the wild type. For some assays here: Tags and fused reporters may be left off the sequences shown.
# B1: glutamate-aspartate transporter (GLAST), endogenous (protein, UniProt P56564 1-543)
# chain: MTKSNGEEPRMGGRMERLQQGVRKRTLLAKKKVQSLTKEDVKSYLFRNAFVLLTVTAVIVGTILGFALRPYKMSYREVKYFSFPGELLMRMLQMLVLPLIISSLVTGMAALDSKASGKMGMRAVVYYMTTTIIAVVIGIIIVIIIHPGKGTKENMYREGKIVQVTAADAFLDLIRNMFPPNLVEACFKQFKTSYEKRSFKVPIQSNETLLGAVINNVSEAMETLTRIREEMVPVPGSVNGVNALGLVVFSMCFGFVIGNMKEQGQALREFFDSLNEAIMRLVAVIMWYAPLGILFLIAGKIVEMEDMGVIGGQLAMYTVTVIVGLLIHAVIVLPLLYFLVTRKNPWVFIGGLLQALITALGTSSSSATLPITFKCLEENNGVDKRITRFVLPVGATINMDGTALYEALAAIFIAQVNNFDLNFGQIITISITATAASIGAAGIPQAGLVTMVIVLTSVGLPTDDITLIIAVDWFLDRLRTTTNVLGDSLGAGIVEHLSRHELKNRDVEMGNSVIEENEMKKPYQLIAQDNEPEKPVADSETKM
# Assays:
# [1] = biological target: T1, full-length GLAST fused with FLAG at the C-terminus (GLAST-FLAG) (mouse) (UniProt P56564); assay: co-IP; lysates of COS-7 cells co-expressing Dscam-mEGFP constructs and GLAST-FLAG (20 mM Tris, 150 mM NaCl, 1 mM EDTA, 0.1% NP-40, pH 7.4, 4 °C); IP with anti-FLAG, protein A Sepharose; blots with anti-GFP and anti-Flag
# T1 sequence: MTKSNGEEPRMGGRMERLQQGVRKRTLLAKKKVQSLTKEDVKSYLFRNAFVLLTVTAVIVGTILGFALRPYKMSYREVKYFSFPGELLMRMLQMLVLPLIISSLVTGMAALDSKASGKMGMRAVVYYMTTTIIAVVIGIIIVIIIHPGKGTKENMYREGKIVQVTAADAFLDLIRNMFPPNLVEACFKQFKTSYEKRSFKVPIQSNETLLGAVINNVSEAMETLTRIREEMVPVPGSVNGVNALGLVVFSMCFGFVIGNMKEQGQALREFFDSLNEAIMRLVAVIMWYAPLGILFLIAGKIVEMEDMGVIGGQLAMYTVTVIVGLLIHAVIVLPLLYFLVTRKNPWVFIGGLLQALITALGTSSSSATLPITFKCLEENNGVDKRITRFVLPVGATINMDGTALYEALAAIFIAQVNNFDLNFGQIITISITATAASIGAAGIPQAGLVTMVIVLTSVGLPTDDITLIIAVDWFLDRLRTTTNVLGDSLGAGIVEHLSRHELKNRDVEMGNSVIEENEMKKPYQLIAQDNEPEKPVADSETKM
# [2] = biological target: T2, glutamate-aspartate transporter (GLAST), endogenous (mouse (endogenous in cerebellum and brain)) (UniProt P56564); assay: co-IP; rough synaptosomal fraction of P21 mouse cerebellum in ULTRARIPA Lipid Raft B-buffer; IP with rabbit anti-DSCAM or anti-EAAT1 (GLAST) or control rabbit IgG, protein G Sepharose, 4 °C; western blot
# T2 sequence: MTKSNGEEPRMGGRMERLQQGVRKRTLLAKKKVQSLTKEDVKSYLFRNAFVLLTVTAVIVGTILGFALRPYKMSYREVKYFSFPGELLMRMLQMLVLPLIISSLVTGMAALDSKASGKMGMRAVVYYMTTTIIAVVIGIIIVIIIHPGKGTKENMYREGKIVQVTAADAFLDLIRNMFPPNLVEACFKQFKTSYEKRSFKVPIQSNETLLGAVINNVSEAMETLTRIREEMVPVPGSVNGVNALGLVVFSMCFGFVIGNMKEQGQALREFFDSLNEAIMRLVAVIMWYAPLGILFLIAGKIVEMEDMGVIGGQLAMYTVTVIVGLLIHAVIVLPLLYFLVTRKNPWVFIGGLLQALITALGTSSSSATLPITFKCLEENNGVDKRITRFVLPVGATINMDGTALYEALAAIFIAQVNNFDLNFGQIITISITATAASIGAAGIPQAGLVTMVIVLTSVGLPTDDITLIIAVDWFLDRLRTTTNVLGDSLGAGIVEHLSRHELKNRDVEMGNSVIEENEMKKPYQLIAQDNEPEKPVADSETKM
# [3] = biological target: endogenous DSCAM tagged with three consecutive ALFA tags (DSCAM-ALFA) (mouse (endogenous in brain of Dscam^ALFA/ALFA mice)) (UniProt Q9ERC8); assay: co-IP; whole-brain lysate of P10-P11 Dscam^ALFA/ALFA or Dscam^+/+ mice in ULTRARIPA Lipid Raft B-buffer; IP with anti-ALFA, anti-GLAST or control rabbit IgG, Dynabeads Protein G, 4 °C; western blot
# [4] = biological target: Down syndrome cell adhesion molecule (DSCAM), endogenous (mouse (endogenous in cerebellum)) (UniProt Q9ERC8); assay: co-IP; rough synaptosomal fraction of P21 mouse cerebellum in ULTRARIPA Lipid Raft B-buffer; IP with rabbit anti-DSCAM or anti-EAAT1 (GLAST) or control rabbit IgG, protein G Sepharose, 4 °C; western blot
molecule,measurement,setting,value
"DSCAM deletion construct lacking the intercellular domain, fused with mEGFP (ΔC-mEGFP) (from UniProt Q9ERC8 18-1615) (domain or fragment)",binding,[1],binds
"Down syndrome cell adhesion molecule (DSCAM), endogenous (from UniProt Q9ERC8 18-2013)",binding,[2],binds
full-length DSCAM fused with mEGFP (Full-mEGFP) (from UniProt Q9ERC8 18-2013),binding,[1],binds
B1,binding,[3],binds
same,binding,[4],binds
